PubChem BioAssay AID1259254 | NCATS | 2017

- Aim: 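Genome-wide screen for genes that prevent DNA re-replication in cancer cells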 (primary screen)
- Cell system: human HCT116 colorectal cancer cells
- Knock-down reagent: single siRNA against human genes
- Time to read-out: 3 days
- Read-out: 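Nuclei stained with Hoechst and imaged; cell-cycle phase assigned by DNA content; G2 share scaled per plate, non-targeting siRNA 0%, GMNN siRNA 100%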
- Direction: G2 robust z-score and G2 cells, % of GMNN control: higher = more G2 cells, more excess DNA replication
- Hit rule: 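An siRNA counts as active if its G2 robust z-score lies at least 5 MADs above the screen median; here such calls match roughly 38% of GMNN control or more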
Here is an unselected part of about 59,000 reagents tested. About 1,550 of them (2.6%) count as active. 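G2 share is only a proxy for re-replication; each gene was hit by three separate siRNAs, and active genes were retested.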 Entries without a mark were called inactive. Reagents against one gene are numbered here. Not all columns of the deposit are shown. The record does not give: the amount of reagent.

Which result is listed for UBA5 (ubiquitin like modifier activating enzyme 5) #1?
G2 robust z-score: -0.326; G2 cells, % of GMNN control: 0.674

Which result is listed for UBA5 (ubiquitin like modifier activating enzyme 5) #2?
G2 robust z-score: 0.673; G2 cells, % of GMNN control: 7.7

For UBA5 (ubiquitin like modifier activating enzyme 5) #3, how do the results read?
G2 robust z-score: 0.621; G2 cells, % of GMNN control: 7.34

For OR51L1 (olfactory receptor family 51 subfamily L member 1) #1, what was measured?
G2 robust z-score: -0.388; G2 cells, % of GMNN control: 0.237

Which result is listed for OR51L1 (olfactory receptor family 51 subfamily L member 1) #2?
G2 robust z-score: 3.31; G2 cells, % of GMNN control: 26.3

With OR51L1 (olfactory receptor family 51 subfamily L member 1) #3, how do the results read?
G2 robust z-score: -0.523; G2 cells, % of GMNN control: -0.712

How did the screen score FZD9 (frizzled class receptor 9) #1?
G2 robust z-score: 0.855; G2 cells, % of GMNN control: 8.99

How did the screen score FZD9 (frizzled class receptor 9) #2?
G2 robust z-score: 0.124; G2 cells, % of GMNN control: 3.84

What did the screen give for FZD9 (frizzled class receptor 9) #3?
G2 robust z-score: -0.424; G2 cells, % of GMNN control: -0.0133

For G3BP2 (G3BP stress granule assembly factor 2) #1, what was measured?
G2 robust z-score: -0.738; G2 cells, % of GMNN control: -2.22

How did the screen score G3BP2 (G3BP stress granule assembly factor 2) #2?
G2 robust z-score: -0.396; G2 cells, % of GMNN control: 0.18

How did the screen score G3BP2 (G3BP stress granule assembly factor 2) #3?
G2 robust z-score: -0.737; G2 cells, % of GMNN control: -2.22

For NORAD (non-coding RNA activated by DNA damage) #1, what does the deposit list?
G2 robust z-score: -0.14; G2 cells, % of GMNN control: 1.98

For NORAD (non-coding RNA activated by DNA damage) #2, what was measured?
G2 robust z-score: -0.63; G2 cells, % of GMNN control: -1.47

With NORAD (non-coding RNA activated by DNA damage) #3, how do the results read?
G2 robust z-score: 1.16; G2 cells, % of GMNN control: 11.1

With SAMD1 (sterile alpha motif domain containing 1) #1, what does the deposit list?
G2 robust z-score: -0.502; G2 cells, % of GMNN control: -0.562

What did the screen give for SAMD1 (sterile alpha motif domain containing 1) #2?
G2 robust z-score: -0.444; G2 cells, % of GMNN control: -0.159

For SAMD1 (sterile alpha motif domain containing 1) #3, what was measured?
G2 robust z-score: 0.459; G2 cells, % of GMNN control: 6.2

For ARSD (arylsulfatase D) #1, what does the deposit list?
G2 robust z-score: 1.07; G2 cells, % of GMNN control: 10.5

What did the screen give for ARSD (arylsulfatase D) #2?
G2 robust z-score: 2.08; G2 cells, % of GMNN control: 17.6

How did the screen score ARSD (arylsulfatase D) #3?
G2 robust z-score: 2.43; G2 cells, % of GMNN control: 20.1

For UBE2L6 (ubiquitin conjugating enzyme E2 L6) #1, how do the results read?
G2 robust z-score: -1.16; G2 cells, % of GMNN control: -5.19

With UBE2L6 (ubiquitin conjugating enzyme E2 L6) #2, what was measured?
G2 robust z-score: -0.261; G2 cells, % of GMNN control: 1.13

What did the screen give for UBE2L6 (ubiquitin conjugating enzyme E2 L6) #3?
G2 robust z-score: 0.778; G2 cells, % of GMNN control: 8.44

How did the screen score PAFAH1B3 #1?
G2 robust z-score: -1.44; G2 cells, % of GMNN control: -7.13

For PAFAH1B3 #2, how do the results read?
G2 robust z-score: -0.691; G2 cells, % of GMNN control: -1.9

For PAFAH1B3 #3, how do the results read?
G2 robust z-score: 0.476; G2 cells, % of GMNN control: 6.32

With SMR3B (submaxillary gland androgen regulated protein 3B) #1, what does the deposit list?
G2 robust z-score: 0.387; G2 cells, % of GMNN control: 5.69

With SMR3B (submaxillary gland androgen regulated protein 3B) #2, what does the deposit list?
G2 robust z-score: 2.66; G2 cells, % of GMNN control: 21.7

What is on record for SMR3B (submaxillary gland androgen regulated protein 3B) #3?
G2 robust z-score: -1.12; G2 cells, % of GMNN control: -4.94
